{
  "source": "patent US20080206374A1",
  "about": "(priority 2003, published 2008)",
  "system": "experimental acute myocardial ischemia of dogs",
  "test": "experimental acute myocardial ischemia and myocardial infarction of anesthetized dogs (coronary artery ligature)",
  "format": "in vivo",
  "conditions": "Dose/kg 0.5 mg, femoral vein",
  "experimental": "The experimental medicaments were prepared with physiological saline to the same volume (50 ml), and injected through femoral vein at a speed of 5 ml/min with the computer minim syringe pump (Type AJ-5803, Shanghai).\nThe animals were anaesthetized with pentobarbital sodium (30 mg/kg, i.v), and connected with an electric respirator after tracheal intubation. The chest was opened in the position of the 4th left rib to expose the heart. The pericardium was cut out to make a pericardial bed. The laevorotatory branch of coronary artery was separated and a probe of an electromagnetic flowmeter (Type MF-1100) was placed in to measure the blood flow of coronary artery. […] The coronary artery was ligated for 15 minutes and recorded as a control value before medicaments administration. […] At 51 15, 30, 45, 60, 90, 120, and 180 minutes after medicament administration, 30 measuring points of the epicardium electrocardiogram were recorded. […] After intubation through the […] into the coronary vein sinus, the blood oxygen content of coronary vein was measured by a blood oxygen instrument (Type AVL912, Swiss) while the blood samples were taken before ischemia, ischemia 15 min (before administration), at 15, 30, 60, 120, and 180 minutes after medicament administration. […] It was calculated together with the blood flow of coronary artery to measure the myocardial oxygen consumption: […]",
  "note": "Counter-ions that a name gives are not always drawn.",
  "data": [
    {"compound": "COc1ccc([C@@H]2Sc3ccccc3N(CCN(C)C)C(=O)[C@@H]2OC(C)=O)cc1", "note": "[Herbesser, Diltiazem Hydrochloride]", "values": [
      {"measurement": "Ventricular Area", "setting": "180 minutes", "value": "3883.1 ± 859.8", "unit": "mm^2"},
      {"measurement": "Heart Area", "setting": "heart taken 180 minutes after administration", "value": "11838.0 ± 2981.1", "unit": "mm^2"}
    ]}
  ]
}
